No constants are given. Whether binding was seen depends on the method and setting. Binding seen in cells or lysates may run through a third protein. Where a sequence is shown, tags or fusion partners need not be part of it.
Target: T1, GFP-tagged MtPT1 (Medicago truncatula) (UniProt O22301)
T1 sequence: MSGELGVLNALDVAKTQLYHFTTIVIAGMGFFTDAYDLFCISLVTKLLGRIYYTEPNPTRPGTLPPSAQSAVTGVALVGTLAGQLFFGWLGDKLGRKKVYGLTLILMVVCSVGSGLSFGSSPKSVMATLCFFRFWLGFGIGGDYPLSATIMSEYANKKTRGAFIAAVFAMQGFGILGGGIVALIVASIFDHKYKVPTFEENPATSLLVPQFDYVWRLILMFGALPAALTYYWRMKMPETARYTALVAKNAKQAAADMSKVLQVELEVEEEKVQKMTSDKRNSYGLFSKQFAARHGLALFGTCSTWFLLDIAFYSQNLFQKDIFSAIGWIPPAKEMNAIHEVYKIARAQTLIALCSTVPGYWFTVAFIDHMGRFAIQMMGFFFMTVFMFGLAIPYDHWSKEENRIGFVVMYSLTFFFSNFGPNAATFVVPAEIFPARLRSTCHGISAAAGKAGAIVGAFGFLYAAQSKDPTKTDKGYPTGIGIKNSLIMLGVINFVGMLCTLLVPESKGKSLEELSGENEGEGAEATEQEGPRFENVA
Experiment: co-IP; GFP-labeled syntaxins (or GFP-PT1) immunoprecipitated with anti-GFP agarose beads (Chromotek) from RIPA-buffer extracts of mycorrhized Medicago roots, 1 h at 4°C; co-purified 3HA-VAMPs detected by anti-HA western blot; performed twice

Substance	binding
triple HA-tag labeled MtVAMP721e (Medicago truncatula)	no binding
triple HA-tag labeled MtVAMP724 (Medicago truncatula)	no binding

Reference: paper PMC7145992
